Data published in article PMC10968678.
Results are given in words; binding and its absence hold for the method and conditions named. In cells and extracts the contact can be indirect. Some binding calls cover weakened binding; strength is not graded here. Tags and fused reporters may be left off the sequences shown.

Chains of the proteins cited; added tags and fusions are not shown.
UniProt Q09472: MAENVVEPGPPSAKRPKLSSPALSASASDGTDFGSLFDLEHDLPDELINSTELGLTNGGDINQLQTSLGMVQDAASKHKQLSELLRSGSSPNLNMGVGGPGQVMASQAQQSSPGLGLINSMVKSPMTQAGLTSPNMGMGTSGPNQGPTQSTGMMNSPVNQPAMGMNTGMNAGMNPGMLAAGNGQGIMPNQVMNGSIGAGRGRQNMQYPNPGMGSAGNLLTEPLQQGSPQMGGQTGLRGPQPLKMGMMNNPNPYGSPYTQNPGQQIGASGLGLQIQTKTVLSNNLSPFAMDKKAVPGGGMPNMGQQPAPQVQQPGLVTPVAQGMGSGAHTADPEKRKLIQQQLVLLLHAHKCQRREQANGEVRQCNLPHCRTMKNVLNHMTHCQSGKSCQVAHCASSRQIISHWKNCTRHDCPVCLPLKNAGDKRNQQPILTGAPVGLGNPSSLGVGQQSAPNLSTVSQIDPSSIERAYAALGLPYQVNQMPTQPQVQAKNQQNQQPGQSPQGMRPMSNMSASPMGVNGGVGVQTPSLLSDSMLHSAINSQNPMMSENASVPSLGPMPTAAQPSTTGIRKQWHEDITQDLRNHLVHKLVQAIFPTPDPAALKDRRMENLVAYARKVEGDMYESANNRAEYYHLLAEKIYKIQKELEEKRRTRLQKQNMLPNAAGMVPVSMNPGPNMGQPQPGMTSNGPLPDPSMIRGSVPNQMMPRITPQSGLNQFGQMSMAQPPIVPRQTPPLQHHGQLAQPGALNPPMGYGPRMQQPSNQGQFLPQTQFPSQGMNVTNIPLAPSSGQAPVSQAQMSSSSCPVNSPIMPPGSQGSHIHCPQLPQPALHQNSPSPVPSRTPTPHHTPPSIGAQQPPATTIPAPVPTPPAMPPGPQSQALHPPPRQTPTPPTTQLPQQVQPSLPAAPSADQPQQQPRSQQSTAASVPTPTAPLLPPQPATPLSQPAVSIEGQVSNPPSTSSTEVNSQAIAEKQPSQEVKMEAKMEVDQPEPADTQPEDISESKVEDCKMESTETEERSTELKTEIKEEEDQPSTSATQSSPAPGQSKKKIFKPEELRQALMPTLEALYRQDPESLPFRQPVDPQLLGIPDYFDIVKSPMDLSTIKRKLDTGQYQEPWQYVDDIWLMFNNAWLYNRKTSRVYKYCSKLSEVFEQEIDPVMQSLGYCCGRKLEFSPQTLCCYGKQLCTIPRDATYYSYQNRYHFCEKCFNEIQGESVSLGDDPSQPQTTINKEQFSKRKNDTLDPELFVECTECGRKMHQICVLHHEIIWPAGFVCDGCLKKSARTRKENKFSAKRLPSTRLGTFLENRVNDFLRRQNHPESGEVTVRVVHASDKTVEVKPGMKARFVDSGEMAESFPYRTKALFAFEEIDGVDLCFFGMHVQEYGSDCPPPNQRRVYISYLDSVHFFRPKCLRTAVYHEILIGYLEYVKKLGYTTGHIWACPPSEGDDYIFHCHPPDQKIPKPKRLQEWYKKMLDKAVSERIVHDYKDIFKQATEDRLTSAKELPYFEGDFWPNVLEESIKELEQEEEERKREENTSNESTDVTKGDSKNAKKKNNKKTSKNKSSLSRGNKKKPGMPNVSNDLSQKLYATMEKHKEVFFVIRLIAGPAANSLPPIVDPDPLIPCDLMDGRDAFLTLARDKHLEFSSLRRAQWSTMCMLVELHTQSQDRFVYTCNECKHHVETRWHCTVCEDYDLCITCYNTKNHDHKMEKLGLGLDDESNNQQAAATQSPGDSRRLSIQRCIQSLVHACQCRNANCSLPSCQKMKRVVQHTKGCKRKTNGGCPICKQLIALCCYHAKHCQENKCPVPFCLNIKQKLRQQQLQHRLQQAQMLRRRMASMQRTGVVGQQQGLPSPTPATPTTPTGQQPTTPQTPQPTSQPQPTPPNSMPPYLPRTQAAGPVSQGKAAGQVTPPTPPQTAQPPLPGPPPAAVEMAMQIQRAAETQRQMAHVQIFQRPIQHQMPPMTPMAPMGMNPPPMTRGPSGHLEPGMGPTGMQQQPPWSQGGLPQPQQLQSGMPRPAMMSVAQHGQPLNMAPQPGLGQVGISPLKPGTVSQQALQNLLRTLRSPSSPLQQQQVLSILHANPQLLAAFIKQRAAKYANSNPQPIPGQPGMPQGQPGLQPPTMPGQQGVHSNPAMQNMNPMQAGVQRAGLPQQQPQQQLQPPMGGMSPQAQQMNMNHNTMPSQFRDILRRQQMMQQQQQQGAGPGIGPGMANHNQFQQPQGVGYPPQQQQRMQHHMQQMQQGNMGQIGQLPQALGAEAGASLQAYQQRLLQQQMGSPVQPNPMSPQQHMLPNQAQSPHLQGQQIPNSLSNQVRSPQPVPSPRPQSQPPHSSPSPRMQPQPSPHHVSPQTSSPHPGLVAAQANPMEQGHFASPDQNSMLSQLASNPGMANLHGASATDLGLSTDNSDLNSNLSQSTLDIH

Target: EP300 (human (endogenous in HepG2)) (UniProt Q09472)
Test: co-IP; cell extract (Pierce IP lysis buffer) incubated with the corresponding antibody overnight at 4 C, Protein A&G beads 4 h at 4 C, Western blot

B1: Glucosylceramidase Beta 3 (GBA3) (enzyme, UniProt Q9H227 1-469)
chain: MAFPAGFGWAAATAAYQVEGGWDADGKGPCVWDTFTHQGGERVFKNQTGDVACGSYTLWEEDLKCIKQLGLTHYRFSLSWSRLLPDGTTGFINQKGIDYYNKIIDDLLKNGVTPIVTLYHFDLPQTLEDQGGWLSEAIIESFDKYAQFCFSTFGDRVKQWITINEANVLSVMSYDLGMFPPGIPHFGTGGYQAAHNLIKAHARSWHSYDSLFRKKQKGMVSLSLFAVWLEPADPNSVSDQEAAKRAITFHLDLFAKPIFIDGDYPEVVKSQIASMSQKQGYPSSRLPEFTEEEKKMIKGTADFFAVQYYTTRLIKYQENKKGELGILQDAEIEFFPDPSWKNVDWIYVVPWGVCKLLKYIKDTYNNPVIYITENGFPQSDPAPLDDTQRWEYFRQTFQELFKAIQLDKVNLQVYCAWSLLDNFEWNQGYSSRFGLFHVDFEDPARPRVPYTSAKEYAKIIRNNGLEAHL
- binding: binds
